Results deposited as PubChem BioAssay AID504786 (Drosophila RNAi Screening Center, 2011).
The deposit covers about 21,000 reagents; shown is an unselected part of those that have a named target and a result. 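Primary screen; positive scores mean lost reporter signal, so the sign may be inverted from the usual convention.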 Reagents against one gene are numbered here. Names joined by + are all predicted targets of the reagent. Not all columns of the deposit are shown.

Purpose: 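Positive regulators of HIF-driven reporter output in Drosophila cells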 (primary screen)
Cells: Drosophila S2 cells with a stable HIF luciferase reporter
Knock-down reagent: long dsRNA against Drosophila genes, about 0.2 µg dsRNA per well of a 384-well plate
Timing: three days of knock-down, then 20 h of DFO before reading
Challenge: desferrioxamine (DFO) at 100 µM, an iron chelator that mimics hypoxia, for 20 h
Measured: 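HIF reporter luminescence in cells given 100 µM DFO for 20 h, using the mouse ldh-a hypoxia-response element, scored as per-plate z-scores; higher means greater loss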
Direction: z-score: higher = stronger loss of HIF reporter signal

CG9391 | z-score, replicate 1 = -0.1
stg | z-score, replicate 1 = 0.5
ND1 (retired record) | z-score, replicate 1 = -0.1
Naam | z-score, replicate 1 = -1.1
dom #1 | z-score, replicate 1 = 2
dom #2 | z-score, replicate 1 = 0
eIF3b | z-score, replicate 1 = 4.9
CG43163 #1 | z-score, replicate 1 = -0.4
CG43163 #2 | z-score, replicate 1 = 0
MRG15 | z-score, replicate 1 = -0.3
TM9SF3 | z-score, replicate 1 = -0.5
Pp1alpha-96A | z-score, replicate 1 = -0.3
CG3014 | z-score, replicate 1 = -0.3
Ccp84Ag | z-score, replicate 1 = -0.4
plx #1 | z-score, replicate 1 = -0.2
plx #2 | z-score, replicate 1 = -0.3
mei-217 + mei-218 | z-score, replicate 1 = 0
CG10859 | z-score, replicate 1 = -0.3
CG14330 | z-score, replicate 1 = -0.5
CG3568 | z-score, replicate 1 = -0.2
ND-B18 | z-score, replicate 1 = 0.3
B-H1 | z-score, replicate 1 = -0.1
Rab30 | z-score, replicate 1 = -0.4
CG12725 | z-score, replicate 1 = 0.1
CG12948 | z-score, replicate 1 = -0.3
Cdc14 | z-score, replicate 1 = -0.1
Usp14 | z-score, replicate 1 = -0.3
